Assay results taken from patent US20240209456.
The comparison behind a weaker result is the experiment's own reference, which may not be listed here.

Amino acid sequences for entries named in this document (tags omitted). A change or cut given only in a name is not applied to a line headed by its entry.
UniProt Q92993: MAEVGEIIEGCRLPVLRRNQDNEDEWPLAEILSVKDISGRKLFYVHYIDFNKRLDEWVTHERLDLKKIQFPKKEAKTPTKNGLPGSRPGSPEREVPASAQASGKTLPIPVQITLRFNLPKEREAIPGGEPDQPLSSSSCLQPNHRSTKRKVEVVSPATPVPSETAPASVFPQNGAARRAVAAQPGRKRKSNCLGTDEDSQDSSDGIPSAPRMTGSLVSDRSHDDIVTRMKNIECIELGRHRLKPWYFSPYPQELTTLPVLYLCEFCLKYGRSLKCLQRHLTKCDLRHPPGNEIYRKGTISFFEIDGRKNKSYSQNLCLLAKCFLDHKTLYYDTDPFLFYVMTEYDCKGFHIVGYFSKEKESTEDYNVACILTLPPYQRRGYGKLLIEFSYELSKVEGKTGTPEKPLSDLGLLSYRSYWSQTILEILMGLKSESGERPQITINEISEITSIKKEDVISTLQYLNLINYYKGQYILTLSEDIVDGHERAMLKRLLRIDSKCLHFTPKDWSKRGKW

Biological target: TIP60 (KAT5), full length (UniProt Q92993)
Assay: EMSA
Conditions: purified recombinant protein, protein details: SignalChem

**Q.** Does “CTTTCCTCCACTCTCCCTGGGA (double strand) [DM2 (DNA duplex of UR2 sequence)]” bind (weak complex, label: 32P, variant of UR2)?
**A.** Result: binds more weakly

**Q.** Does “GCCCTTTCCCCAGCCTTAGCGA (double strand) [DM3 (DNA duplex of UR3 sequence)]” bind (weak complex, text says same sequence as UR3, label: 32P, variant of UR3)?
**A.** Result: binds more weakly

**Q.** Does “GGCGTGGCGGTGGGCGCGCAGT (double strand) [DM9A (DNA duplex of RM9A sequence)]” bind (weaker than RM9A RNA, text says same sequence as RM9A, label: 32P, variant of RM9A)?
**A.** Result: binds more weakly

**Q.** Does UUAUGUUAUUGUUUAUAUACGU [Mut_RM9A] bind (strength and mobility of complex changed, label: 5'-32P, variant of RM9A)?
**A.** Result: binds more weakly
